Data: article PMC6667474

Protein sequences, listed by entry. Tags and fused reporters are not part of them.
UniProt Q86VI3: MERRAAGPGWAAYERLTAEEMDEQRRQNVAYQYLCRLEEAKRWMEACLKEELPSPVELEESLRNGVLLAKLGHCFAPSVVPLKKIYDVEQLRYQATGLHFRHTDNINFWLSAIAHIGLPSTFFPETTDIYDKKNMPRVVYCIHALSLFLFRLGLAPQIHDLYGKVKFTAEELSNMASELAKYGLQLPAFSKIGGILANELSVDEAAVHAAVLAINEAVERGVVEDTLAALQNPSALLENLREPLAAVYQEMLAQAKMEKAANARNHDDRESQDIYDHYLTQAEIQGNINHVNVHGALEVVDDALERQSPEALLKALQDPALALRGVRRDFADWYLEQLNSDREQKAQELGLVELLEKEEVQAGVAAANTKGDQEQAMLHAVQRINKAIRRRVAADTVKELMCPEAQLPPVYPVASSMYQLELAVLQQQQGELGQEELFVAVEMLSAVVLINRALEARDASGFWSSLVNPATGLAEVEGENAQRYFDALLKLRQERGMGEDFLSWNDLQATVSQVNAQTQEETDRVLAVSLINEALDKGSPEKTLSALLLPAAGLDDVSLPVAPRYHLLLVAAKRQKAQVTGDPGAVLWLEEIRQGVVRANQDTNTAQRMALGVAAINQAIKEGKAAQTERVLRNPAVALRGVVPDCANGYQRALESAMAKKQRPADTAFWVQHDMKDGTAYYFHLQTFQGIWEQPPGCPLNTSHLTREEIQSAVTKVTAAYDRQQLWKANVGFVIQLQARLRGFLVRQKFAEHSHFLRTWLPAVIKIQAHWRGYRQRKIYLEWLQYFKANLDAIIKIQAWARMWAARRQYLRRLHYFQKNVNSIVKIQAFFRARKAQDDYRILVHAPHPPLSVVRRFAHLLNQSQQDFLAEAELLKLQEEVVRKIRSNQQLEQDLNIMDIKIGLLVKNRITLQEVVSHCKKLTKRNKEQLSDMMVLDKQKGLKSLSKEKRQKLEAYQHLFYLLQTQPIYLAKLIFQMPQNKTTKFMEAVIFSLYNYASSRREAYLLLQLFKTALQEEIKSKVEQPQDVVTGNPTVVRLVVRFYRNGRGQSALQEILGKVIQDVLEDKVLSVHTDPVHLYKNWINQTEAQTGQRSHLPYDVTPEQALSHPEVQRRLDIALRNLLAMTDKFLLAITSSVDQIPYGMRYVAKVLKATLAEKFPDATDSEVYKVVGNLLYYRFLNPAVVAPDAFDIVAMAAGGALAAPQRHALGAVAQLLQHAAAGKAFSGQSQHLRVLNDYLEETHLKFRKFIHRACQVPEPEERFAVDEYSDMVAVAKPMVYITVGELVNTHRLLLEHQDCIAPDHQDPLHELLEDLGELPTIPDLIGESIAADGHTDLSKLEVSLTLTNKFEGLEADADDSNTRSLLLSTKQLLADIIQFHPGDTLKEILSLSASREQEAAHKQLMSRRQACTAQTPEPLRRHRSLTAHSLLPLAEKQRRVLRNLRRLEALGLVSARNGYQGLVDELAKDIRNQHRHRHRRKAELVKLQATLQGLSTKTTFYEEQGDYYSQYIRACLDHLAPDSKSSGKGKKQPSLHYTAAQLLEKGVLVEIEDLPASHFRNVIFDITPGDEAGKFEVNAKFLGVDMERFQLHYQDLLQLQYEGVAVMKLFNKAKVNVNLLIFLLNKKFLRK

Columns and labels:
[1] = biological target: FLAG-tagged constitutively active (G12V) K-Ras (UniProt P01116); experiment: co-IP; HEK293 cells transfected with FLAG-Ras G12V; anti-FLAG M2 magnetic beads 4 h at 4 C; lysis buffer 150 mM NaCl, 1% Triton X-100, 200 mM Tris-HCl pH 7.4; Western blot
[2] = biological target: GST-tagged constitutively active (G12V) K-Ras (UniProt P01116); experiment: pull-down; GST proteins on glutathione-Sepharose beads incubated 3 h at 4 C with lysate of HEK293 cells transfected with Myc-C-Raf alone, Myc-C-Raf and Myc-IQGAP1, or Myc-C-Raf and Myc-IQGAP3; lysis buffer (150 mM NaCl, 1% Triton X-100, 200 mM Tris-HCl pH 7.4) with 1 mM EGTA; Western blot; only the target purified

Row | Substance | binding [1] | binding [2]
1 | endogenous IQGAP1 (from UniProt P46940 1-1657) | no binding | no binding
2 | endogenous IQGAP3 (from UniProt Q86VI3 1-1631) | no binding | no binding

These are yes or no findings as the source states them, for the method shown. Binding seen in cells or lysates may run through a third protein.
